For experiment [1], the target named is complement evasion factor (CEF), recombinant Spy0136 (Streptococcus pyogenes SF370) (UniProt Q9A1R6). As to the kind of experiment: ELISA; rCEF coated at 1 µg/well; complement proteins at 0, 0.25, 0.5, 1.0, 1.5 and 2 µg/well in 50 mM NaCl, 20 mM Tris-HCl pH 7.4, 1 mM CaCl2, 2 h at 37°C; detected with specific primary antibodies and HRP anti-rabbit IgG; proteins untreated or treated with PNGase F; both purified.

Amino acid sequences for entries named in this document (tags omitted).
UniProt P04003: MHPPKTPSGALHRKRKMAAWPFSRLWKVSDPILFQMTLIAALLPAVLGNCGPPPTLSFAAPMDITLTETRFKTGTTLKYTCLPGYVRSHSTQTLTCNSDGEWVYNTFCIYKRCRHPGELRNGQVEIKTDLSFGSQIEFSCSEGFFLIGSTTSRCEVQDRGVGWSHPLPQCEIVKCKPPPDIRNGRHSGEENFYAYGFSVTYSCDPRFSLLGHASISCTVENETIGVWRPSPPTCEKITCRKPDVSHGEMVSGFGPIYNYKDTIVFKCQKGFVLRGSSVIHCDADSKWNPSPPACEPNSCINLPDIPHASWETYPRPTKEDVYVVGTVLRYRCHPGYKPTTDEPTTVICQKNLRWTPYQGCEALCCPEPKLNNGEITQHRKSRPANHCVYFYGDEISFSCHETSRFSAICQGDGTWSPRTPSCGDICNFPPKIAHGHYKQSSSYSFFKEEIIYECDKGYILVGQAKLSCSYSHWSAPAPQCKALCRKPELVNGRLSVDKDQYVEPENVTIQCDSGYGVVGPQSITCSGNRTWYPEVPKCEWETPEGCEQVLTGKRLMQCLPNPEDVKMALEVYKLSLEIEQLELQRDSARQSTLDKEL

Experiment [2] has the same target. Described as above. This is another data set of the same source.

The text below walks through data of PMC8803112.

Where two headings read alike, the source gives them in different places. Results are given in words; binding and its absence hold for the method and conditions named.

Turning to “C4BPA, recombinant protein expressed from a wheat germ in-vitro system (from UniProt P04003 1-597)”, in experiment [1], the binding entry is recorded as “no binding (tested: 2 μg/well)”.

B1: complement protein C2, recombinant protein expressed in HEK293 (protein, UniProt P06681 21-752)
chain: APSCPQNVNISGGTFTLSHGWAPGSLLTYSCPQGLYPSPASRLCKSSGQWQTPGATRSLSKAVCKPVRCPAPVSFENGIYTPRLGSYPVGGNVSFECEDGFILRGSPVRQCRPNGMWDGETAVCDNGAGHCPNPGISLGAVRTGFRFGHGDKVRYRCSSNLVLTGSSERECQGNGVWSGTEPICRQPYSYDFPEDVAPALGTSFSHMLGATNPTQKTKESLGRKIQIQRSGHLNLYLLLDCSQSVSENDFLIFKESASLMVDRIFSFEINVSVAIITFASEPKVLMSVLNDNSRDMTEVISSLENANYKDHENGTGTNTYAALNSVYLMMNNQMRLLGMETMAWQEIRHAIILLTDGKSNMGGSPKTAVDHIREILNINQKRNDYLDIYAIGVGKLDVDWRELNELGSKKDGERHAFILQDTKALHQVFEHMLDVSKLTDTICGVGNMSANASDQERTPWHVTIKPKSQETCRGALISDQWVLTAAHCFRDGNDHSLWRVNVGDPKSQWGKEFLIEKAVISPGFDVFAKKNQGILEFYGDDIALLKLAQKVKMSTHARPICLPCTMEANLALRRPQGSTCRDHENELLNKQSVPAHFVALNGSKLNINLKMGVEWTSCAEVVSQEKTMFPNLTDVREVVTDQFLCSGTQEDESPCKGESGGAVFLERRFRFFQVGLVSWGLYNPCLGSADKNSRKRAPRSKVPPPRDFHINLFRMQPWLRQHLGDVLNFLPL
In the case of B1, in experiment [2], the binding entry is “no binding (tested: 2 μg/well)”.
